The numbers were not newly measured in patent US20220265571A1, “COMPOSITION OF CANNABIDIOL FOR USE IN THE TREATMENT AND PREVENTION OF BRO[…]” (MOR RESEARCH APPLICATIONS LTD., priority 2019, published 2022), which cites them from elsewhere.

On to `C=C(C)[C@@H]1CCC(C)=C[C@H]1c1c(O)cc(CCCCC)cc1O` [Cannabidiol, 2-[(6R)-3-Methyl-6-prop-1-en-2-yl-1cyclohex-2-envyl]-5pentylbenzene-1,3-diol], for which, under “organic solvents, such as oil”, the “solubility in organic solvents” value is listed as “soluble”. The solubility in water entry (water) was “insoluble”.
